# In PubChem BioAssay AID778 (Sanford-Burnham Center for Chemical Genomics, 2007):
# Sequences of proteins named here, by UniProt entry; tags and fusion partners are left off.
# UniProt P33261, whole entry, looked up: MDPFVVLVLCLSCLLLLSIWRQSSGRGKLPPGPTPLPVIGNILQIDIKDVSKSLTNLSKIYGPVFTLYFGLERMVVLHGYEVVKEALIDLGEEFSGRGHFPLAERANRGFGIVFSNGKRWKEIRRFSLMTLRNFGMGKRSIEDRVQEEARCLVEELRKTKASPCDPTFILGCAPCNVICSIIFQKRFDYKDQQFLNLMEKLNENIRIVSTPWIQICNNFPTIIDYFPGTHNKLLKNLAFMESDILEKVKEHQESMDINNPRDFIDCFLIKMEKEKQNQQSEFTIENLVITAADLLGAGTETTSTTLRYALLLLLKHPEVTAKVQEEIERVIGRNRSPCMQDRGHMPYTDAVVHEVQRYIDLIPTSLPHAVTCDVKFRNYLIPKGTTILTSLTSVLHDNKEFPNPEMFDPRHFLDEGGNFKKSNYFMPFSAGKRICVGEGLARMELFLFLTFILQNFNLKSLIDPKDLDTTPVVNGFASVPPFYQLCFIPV
# The list shows a part of the results, in another mix than the full data. Activity calls are given as the source filed them.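 How the source made its calls: active means CYP2C19 inhibition above a set limit at 5 µM in the primary screen (cut at about 50% in these data); inactive means the rest.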
# Target: Cytochrome P450 2C19 (Homo sapiens) (UniProt P33261)
# Assay: blockers of cytochrome P450 2C19 activity – biochemical, luminescence, ADME assay, primary screen (AID 778);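 further: plate controls were negative control wells for no effect and 2.5 mM tranylcypromine positive control for full effect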
# Conditions: CYP2C19 Supersomes, luciferin-H EGE luminescence, 30 min; at 5 µM; hits give high values
row,Structure (SMILES),inhibition
1,Nc1ccc(Sc2ccccc2CC(=O)O)cc1,active: 54.5%
